In patent US8987192B2, “Potent and selective mediators of cholesterol efflux” (The Regents of the University of California, priority 2006, dated 2015):
For some assays here: At least one compound was matched to its structure with a doubt left. Some of these results come from one statement about several compounds together. Some ranges recur; such a range may be that of the whole group of compounds.

Amino acid sequences for entries named in this document (tags omitted). A change or cut given only in a name is not applied to a line headed by its entry.
UniProt P41233: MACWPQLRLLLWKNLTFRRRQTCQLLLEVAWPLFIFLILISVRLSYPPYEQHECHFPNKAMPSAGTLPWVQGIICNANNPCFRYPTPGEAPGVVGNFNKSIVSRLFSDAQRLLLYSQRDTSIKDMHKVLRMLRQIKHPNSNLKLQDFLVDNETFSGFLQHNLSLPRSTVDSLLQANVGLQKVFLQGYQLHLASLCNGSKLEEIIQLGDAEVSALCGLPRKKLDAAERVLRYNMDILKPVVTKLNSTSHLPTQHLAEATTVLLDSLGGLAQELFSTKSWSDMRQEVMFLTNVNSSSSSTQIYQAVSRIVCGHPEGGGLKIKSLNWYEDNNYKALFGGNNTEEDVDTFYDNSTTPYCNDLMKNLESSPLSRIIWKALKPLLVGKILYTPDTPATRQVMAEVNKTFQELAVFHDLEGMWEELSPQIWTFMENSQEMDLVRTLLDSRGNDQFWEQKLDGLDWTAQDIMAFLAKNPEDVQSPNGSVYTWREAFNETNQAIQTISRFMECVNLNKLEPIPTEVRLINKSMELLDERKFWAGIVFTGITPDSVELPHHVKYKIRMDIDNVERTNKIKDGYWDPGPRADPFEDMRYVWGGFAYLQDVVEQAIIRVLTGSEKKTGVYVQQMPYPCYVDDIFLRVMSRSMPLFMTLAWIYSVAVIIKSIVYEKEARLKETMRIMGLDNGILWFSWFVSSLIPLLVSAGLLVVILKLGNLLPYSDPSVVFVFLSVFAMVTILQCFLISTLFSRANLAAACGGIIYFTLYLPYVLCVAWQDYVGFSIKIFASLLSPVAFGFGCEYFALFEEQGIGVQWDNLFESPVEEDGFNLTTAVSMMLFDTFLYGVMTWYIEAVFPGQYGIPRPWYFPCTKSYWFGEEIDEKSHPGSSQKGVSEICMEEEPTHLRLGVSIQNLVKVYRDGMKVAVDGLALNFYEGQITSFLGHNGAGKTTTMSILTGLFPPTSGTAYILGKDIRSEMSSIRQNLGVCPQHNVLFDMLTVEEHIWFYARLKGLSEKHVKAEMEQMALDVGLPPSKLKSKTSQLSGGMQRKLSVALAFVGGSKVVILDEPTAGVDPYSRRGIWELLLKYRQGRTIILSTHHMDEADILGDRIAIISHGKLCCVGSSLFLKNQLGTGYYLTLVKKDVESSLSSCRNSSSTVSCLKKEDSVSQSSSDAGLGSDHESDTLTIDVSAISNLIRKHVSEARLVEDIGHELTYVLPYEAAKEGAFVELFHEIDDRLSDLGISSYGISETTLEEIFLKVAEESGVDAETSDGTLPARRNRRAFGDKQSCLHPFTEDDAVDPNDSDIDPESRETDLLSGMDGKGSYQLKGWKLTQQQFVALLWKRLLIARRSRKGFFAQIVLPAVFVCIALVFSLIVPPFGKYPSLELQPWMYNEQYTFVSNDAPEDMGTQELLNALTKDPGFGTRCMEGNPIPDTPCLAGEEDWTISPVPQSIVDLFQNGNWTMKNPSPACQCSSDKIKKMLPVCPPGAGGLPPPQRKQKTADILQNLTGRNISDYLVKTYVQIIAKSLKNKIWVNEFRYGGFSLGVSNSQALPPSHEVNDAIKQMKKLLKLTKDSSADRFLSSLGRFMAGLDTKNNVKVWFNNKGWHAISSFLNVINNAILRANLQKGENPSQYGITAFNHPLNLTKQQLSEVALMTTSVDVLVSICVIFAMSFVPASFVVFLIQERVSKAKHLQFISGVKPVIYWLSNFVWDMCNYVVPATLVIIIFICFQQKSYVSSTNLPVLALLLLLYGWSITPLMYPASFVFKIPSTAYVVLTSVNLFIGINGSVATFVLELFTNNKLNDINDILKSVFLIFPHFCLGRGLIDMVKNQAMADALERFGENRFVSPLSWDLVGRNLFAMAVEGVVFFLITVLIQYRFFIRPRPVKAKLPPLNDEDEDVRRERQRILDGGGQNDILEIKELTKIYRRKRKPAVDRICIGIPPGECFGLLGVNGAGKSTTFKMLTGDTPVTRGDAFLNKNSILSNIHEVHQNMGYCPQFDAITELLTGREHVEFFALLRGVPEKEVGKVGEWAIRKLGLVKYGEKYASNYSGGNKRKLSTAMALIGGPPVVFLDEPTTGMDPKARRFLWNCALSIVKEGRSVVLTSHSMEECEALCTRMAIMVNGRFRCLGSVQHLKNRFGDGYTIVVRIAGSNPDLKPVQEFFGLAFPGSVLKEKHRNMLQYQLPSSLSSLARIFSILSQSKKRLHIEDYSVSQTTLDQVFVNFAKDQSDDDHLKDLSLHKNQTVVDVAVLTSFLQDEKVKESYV

Legend:
ABCA1 = ABCA1 (Mus musculus, UniProt P41233); test: Cholesterol efflux from [3H]cholesterol-labeled ABCA1-expressing J774 mouse macrophages; type: cell-based; set-up: to upregulate cellular ABCA1 protein; endogenous in cells; host or cells: J774 mouse macrophages; conditions: Km on mass basis (μg/ml), 4 h, cAMP analog; vs apoA-I and apoE3
Procedure: In some embodiments, a polypeptide known to mediate cholesterol efflux (e.g., helix 9/10 of Apo A-I) is used to screen for additional mediators of cholesterol efflux in a cell based assay. For example, cell lines in which cholesterol efflux can be enhanced using a cAMP analog that up-regulates ABCA1 protein expression (e.g., J774 macrophages) can conveniently be used to assess the ability of a polypeptide of the present invention to mediate cholesterol efflux. The cells are incubated with labeled cholesterol (e.g., [^3H]cholesterol) under conditions appropriate for cholesterol uptake by the cells. Thus, cAMP or cAMP analogs (e.g., CPT-cAMP) are incubated with the cells for a suitable time before the initiation of cellular cholesterol efflux, i.e., prior to contacting the cells with a test polypeptide. Measurement of labeled cholesterol appearing in the medium is used to determine the cholesterol efflux mediating activity of the test polypeptide.
J774 mouse macrophages labeled with [^3H]cholesterol were treated (20 h) with 22-hydroxycholesterol (10 μM)/cis-retinoic acid (10 μM) to upregulate cellular ABCA1 protein.
Mouse macrophages were labeled with [^3H]cholesterol and treated with a cAMP analog to induce ABCA1 expression. […] Km values were calculated using the Michaelis-Menton equation and GraphPad Prism4 software.
Inverted sequence peptides synthesized with all L-amino acids and all D-amino acids were tested for cholesterol efflux activity using ABCA1 expressing J774 macrophages.
Two peptide analogs were engineered; the first replacing glutamic acid residues (E) at position 8 and 15 with aspartic acid residues (D), i.e., E8, 15>D polypeptides, and the second, replacing E1, 7, 8, 15, 18, 19 with D, i.e., all D (Asp) polypeptide. Cholesterol efflux activity was determined using J774 macrophages treated with and without a cAMP analog to modulate ABCA1 expression.
The impact of the A12>L substitution was also tested for activity, which also expanded non-polar surface area. […]

[1] = system: Apolipoprotein E knock-out mice; test: Atherosclerosis in Apolipoprotein E knock-out mice on Western diet, pooled series (Example 19); type: in vivo, mouse; conditions: pooled data
Procedure: The polypeptide of SEQ ID NO:4 and its Y26 analog have been evaluated with respect to ability to inhibit atherosclerosis in Apolipoprotein E knock-out mice. The mice were given Western diet for 18 weeks and then randomized to receive saline, free polypeptide or polypeptide-phospholipid complex. […] The degree of atherosclerosis was then determined in whole aorta and aortic root/sinus. Three experimental series were performed. […] The results are equal to or better than previously have been obtained with IV infusions of 40 mg/kg Apolipoprotein A-I Milano/phospholipids complex into Apo E knock-out mice (Shah et al., Circ., 97:780-5, 1998).
As noted above, data from three experimental series were pooled. Pooling of data is justified as only minor changes in the procedures were made (21 injections at 30 mg/kg over 42 and 21 days, respectively), and the diet regimens and sources of mice and polypeptide, respectively, were the same. In the first experiment S26 was substituted for Y26.

[2] = scaled values = (raw log(P) + 2.061)/4.484; cited from earlier work

Compound	Km for cholesterol efflux, fold lower than intact apolipoproteins (ABCA1)	p versus control, FIG. 19B percent plaque in aortic root [1]	Hydrophobicity [2]
EVRSKLEEWFAAFREFFEEFLARLKS (S1 amphipathic alpha-helix polypeptide core sequence selectively binds HDL, high-affinity ligand for ATP- binding cassette transporter A1 (ABCA1), ABCA1-lipid cholesterol efflux, ABCA1-stablization, anti-oxidant and anti-inflammatory activity) [SEQ ID NO:5]	4-5 fold	–	–
EVRSKLEEWFAAFREFAEEFLARLKS (ATI-5261 amphipathic alpha-helix polypeptide core sequence selectively binds HDL, high-affinity ligand for ATP-binding cassette transporter A1 (ABCA1), ABCA1-lipid cholesterol efflux, ABCA1-stablization, anti-oxidant and anti- inflammatory activity) [SEQ ID NO:4]	4-5 fold	< 0.0001	–
EFRSKLEEWFAAFREFFEEFLARLKS (S2 amphipathic alpha-helix polypeptide core sequence selectively binds HDL, high-affinity ligand for ATP- binding cassette transporter A1 (ABCA1), ABCA1-lipid cholesterol efflux, ABCA1-stablization, anti-oxidant and anti-inflammatory activity) [SEQ ID NO:6]	4-5 fold	–	–
N[C@@H](CC(=O)O)C(=O)O [Aspartate]	–	–	0.028
